These are yes or no findings as the source states them, for the method shown. Some binding calls cover weakened binding; strength is not graded here. Tags and fused reporters may be left off the sequences shown.
T1: DisA fused to the T18 or T25 catalytic domain of the adenylate cyclase (B. subtilis) (UniProt P37573)
T1 sequence: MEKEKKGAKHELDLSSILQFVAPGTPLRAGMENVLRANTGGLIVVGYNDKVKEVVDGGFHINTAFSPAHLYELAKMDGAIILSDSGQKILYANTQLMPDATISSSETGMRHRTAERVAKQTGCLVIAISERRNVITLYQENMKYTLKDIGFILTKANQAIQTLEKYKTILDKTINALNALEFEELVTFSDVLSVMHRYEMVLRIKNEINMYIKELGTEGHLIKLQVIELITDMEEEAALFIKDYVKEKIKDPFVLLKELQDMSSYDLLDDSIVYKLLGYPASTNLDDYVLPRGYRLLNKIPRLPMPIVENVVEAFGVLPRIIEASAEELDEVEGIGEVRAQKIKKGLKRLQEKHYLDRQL

T2: His-tagged DisA (B. subtilis, UniProt P37573 1-360)
T2 sequence (looked up): T1 sequence

B1: RecG fused to the T18 or T25 catalytic domain of the adenylate cyclase (protein, UniProt O34942 1-682)
chain: MKQHQQTSIANIKGIGPETEKTLNELGIYDISDLLNYFPYRYDDYELRDLEEVKHDERVTVEGKVHSEPSLTYYGKKRNRLTFRLLVGHYLITAVCFNRPYLKKKLSLGSVVTVSGKWDKHRQTISVQELKNGPHQEDKSIEPVYSVKENVTVKMMRRFIQQALTQYADSLPDPLPEKLRKSYKLPDYYQALKAMHQPETREALKLARRRFVYEEFLLFQLKMQAFRKAEREQTQGIRQRFSNEELMRFIKSLPFPLTNAQSRVLREITADMSSPYRMNRLLQGDVGSGKTAVAAIALYAAILSGYQGALMVPTEILAEQHADSLVSLFEKWDVSVALLTSSVKGKRRKELLERLAAGEIDILVGTHALIQDEVEFKALSLVITDEQHRFGVEQRKKLRNKGQDPDVLFMTATPIPRTLAITVFGEMDVSVIDEMPAGRKRIETYWVKHDMLDRILAFVEKELKQGRQAYIICPLIEESDKLDVQNAIDVYNMLSDIFRGKWNVGLMHGKLHSDEKDQVMREFSANHCQILVSTTVVEVGVNVPNATIMVIYDADRFGLSQLHQLRGRVGRGEHQSFCILMADPKSETGKERMRIMSETNDGFELSEKDLELRGPGDFFGKKQSGMPEFKVADMVHDYRALETARQDAANLVASDAFWKEPEYAVLRDELLKSGVMDGEKLS
B2: native RecG (natural protein, B. subtilis, UniProt O34942 1-682, looked up)
chain: B1 chain

Assays:
[1] = biological target: RecG fused to the T18 or T25 catalytic domain of the adenylate cyclase (B. subtilis) (UniProt O34942); assay: two-hybrid; adenylate cyclase-based bacterial two-hybrid in E. coli BTH101; T18 and T25 fusions at the N- or C-terminus co-transformed pairwise; spotted on LB plates with 0.5 mM IPTG and X-Gal, 25 °C for 3-4 days; blue colonies as read-out
[2] = biological target: T1, DisA fused to the T18 or T25 catalytic domain of the adenylate cyclase (B. subtilis); assay: as above
His-tagged DisA = biological target: T2, His-tagged DisA; assay: pull-down; Ni2+ affinity chromatography: His-tagged DisA (1 µg) and RecG (0.5 µg) pre-incubated in buffer B (50 mM Tris-HCl pH 7.5, 1 mM DTT, 50 mM NaCl, 1 mM MgCl2, 0.05 mg/mL BSA, 5% glycerol) 5 min at 37 °C, loaded onto a 50 µL Ni2+ microcolumn, washed, eluted with 400 mM imidazole; SDS-PAGE, Coomassie; both purified

Binder	binding [1]	binding [2]	binding (His-tagged DisA)
B1	binds	no binding	
B2			no binding (tested: RecG 0.5 µg, His-tagged DisA 1 µg)
